Publication PMC10570696, “DNA-translocation-independent role of INO80 remodeler in DNA damage repairs” (The Journal of Biological Chemistry, 2023)
Results are given in words; binding and its absence hold for the method and conditions named. Some results given as binding are weak or reduced against the parent protein; the word gives no strength.

By UniProt entry, the sequences of proteins in these tests, tags left out. Where a name states a change or a piece, a line headed by the entry shows the natural chain unless it says otherwise. Chains listed by the source or under a name are the forms on record and can include a tag or linker. Residues count along the entry.
UniProt P53115: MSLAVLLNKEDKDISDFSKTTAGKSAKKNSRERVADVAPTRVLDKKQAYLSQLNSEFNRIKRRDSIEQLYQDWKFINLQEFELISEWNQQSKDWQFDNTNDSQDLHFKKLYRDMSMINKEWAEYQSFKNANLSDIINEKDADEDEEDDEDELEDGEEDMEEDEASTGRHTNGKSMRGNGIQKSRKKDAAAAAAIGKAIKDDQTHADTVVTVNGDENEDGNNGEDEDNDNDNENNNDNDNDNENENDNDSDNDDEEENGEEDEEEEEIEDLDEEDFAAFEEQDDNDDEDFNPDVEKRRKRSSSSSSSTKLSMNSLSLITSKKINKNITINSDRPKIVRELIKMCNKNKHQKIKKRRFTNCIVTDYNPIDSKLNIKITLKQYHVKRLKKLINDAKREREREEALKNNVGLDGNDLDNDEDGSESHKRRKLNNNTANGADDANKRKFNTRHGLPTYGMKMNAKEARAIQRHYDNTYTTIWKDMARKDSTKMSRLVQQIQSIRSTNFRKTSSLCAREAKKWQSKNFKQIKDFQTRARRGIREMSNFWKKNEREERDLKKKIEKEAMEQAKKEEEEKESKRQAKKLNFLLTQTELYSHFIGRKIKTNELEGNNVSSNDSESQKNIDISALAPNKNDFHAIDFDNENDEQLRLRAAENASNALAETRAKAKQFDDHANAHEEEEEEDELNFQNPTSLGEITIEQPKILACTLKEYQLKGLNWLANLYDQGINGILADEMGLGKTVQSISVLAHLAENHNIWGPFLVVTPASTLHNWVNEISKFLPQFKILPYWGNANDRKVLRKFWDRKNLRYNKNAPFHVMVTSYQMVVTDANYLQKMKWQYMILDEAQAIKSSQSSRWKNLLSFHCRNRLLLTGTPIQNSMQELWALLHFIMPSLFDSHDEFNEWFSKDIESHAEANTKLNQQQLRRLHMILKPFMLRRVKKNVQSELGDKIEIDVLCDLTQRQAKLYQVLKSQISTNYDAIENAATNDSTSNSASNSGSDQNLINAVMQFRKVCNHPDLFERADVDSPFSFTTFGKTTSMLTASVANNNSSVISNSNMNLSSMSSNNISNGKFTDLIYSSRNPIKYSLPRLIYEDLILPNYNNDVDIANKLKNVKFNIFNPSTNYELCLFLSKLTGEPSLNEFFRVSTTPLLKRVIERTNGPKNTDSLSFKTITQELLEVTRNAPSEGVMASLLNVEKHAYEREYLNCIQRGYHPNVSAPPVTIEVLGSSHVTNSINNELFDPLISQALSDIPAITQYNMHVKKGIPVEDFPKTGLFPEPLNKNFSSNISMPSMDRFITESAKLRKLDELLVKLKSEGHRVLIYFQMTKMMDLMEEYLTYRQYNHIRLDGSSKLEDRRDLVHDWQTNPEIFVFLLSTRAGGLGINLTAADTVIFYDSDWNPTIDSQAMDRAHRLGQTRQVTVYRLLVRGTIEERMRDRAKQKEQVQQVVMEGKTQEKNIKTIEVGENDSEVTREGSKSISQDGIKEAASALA
Ino80ΔN, truncated form of the Ino80 subunit (residue 470 from 1490) with a C-terminal Twin-Strep tag: residues 470-1489 of P53115
UniProt P35189: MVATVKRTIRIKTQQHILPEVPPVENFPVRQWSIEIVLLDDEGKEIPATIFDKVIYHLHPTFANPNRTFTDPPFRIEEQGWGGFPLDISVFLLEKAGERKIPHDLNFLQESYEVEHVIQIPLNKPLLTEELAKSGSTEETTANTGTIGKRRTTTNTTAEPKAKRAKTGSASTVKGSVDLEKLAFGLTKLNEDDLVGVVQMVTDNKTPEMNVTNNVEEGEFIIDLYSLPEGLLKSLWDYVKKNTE

Columns and labels:
[1] = biological target: Ino80 subunit with a C-terminal twin-strep tag (of the INO80-C full complex) (S. cerevisiae) (UniProt P53115); assay: co-purification (Strep-Tactin affinity, then anion exchange; SDS-PAGE); subunits co-expressed in High Five cells; lysate in 400 mM NaCl buffer loaded on a Strep-XT column by the Twin-Strep tag on Ino80, washed at 250 mM NaCl, eluted with biotin, then HQ column with a salt gradient; fractions analysed by SDS-PAGE
[2] = biological target: Ino80ΔN, truncated form of the Ino80 subunit (residue 470 from 1490) with a C-terminal Twin-Strep tag (S. cerevisiae) (UniProt P53115); assay: as above

binding [1]	binding [2]	Molecule
binds		Taf14 (from UniProt P35189 1-244)
binds		Ies5 (protein, UniProt P40060 1-125) MPSKDPESVIDKEIRKISARNDELIKQDGTLKREYTTLLRKVSSVITVLNSIDDADTGSAETELPRLISQATVEKVPELKWYNDQISLITEKLEDDEDIEVPEELMDAYTLYKETPLLYNDTHTP
binds	binds	Ies6 (protein, UniProt P32617 1-166) MSGSRGNSSNSSVSNNSNNNNNNDGGDERLLFLRSVGERNEIGFPSRFKSAHYKKPTRRHKSARQLISDENKRINALLTKANKAAESSTAARRLVPKATYFSVEAPPSIRPAKKYCDVTGLKGFYKSPTNNIRYHNAEIYQLIVKPMAPGVDQEYLKLRGANFVLK
binds		Nhp10 (protein, UniProt Q03435 1-203) MSVEEKKRRLEELKDQNVVLGLAIQRSRLSVKRLKLEYGVLLERLESRIELDPELNCEDPLPTLASFKQELLTKPFRKSKTKRHKVKERDPNMPKRPTNAYLLYCEMNKERIRQNGSLDVTRDLAEGWKNLNEQDRKPYYKLYSEDRERYQMEMEIYNKKISNIDADDDKEENEQKIKNNEEGSSTKVADSKGGEDGSLVSSN

More lines, now with the values behind:

Molecule	binding [1]	binding [2]
Ies4 (protein, UniProt Q08561 1-116) MSQESSVLSESQEQLANNPKIEDTSPPSANSRDNSKPVLPWDYKNKAIEIKSFSGYKVNFTGWIRRDVREERQRGSEFTASDVKGSDDKATRKKEPADEDPEVKQLEKEGEDGLDS	binds	binds
Ies1 (protein, UniProt P43579 1-692) MGKRVYDPIHDTFQLREDNSDETKADSPMQSVKSGSQEEASPSSIQSETETVTTKSIPVIHEIEIDDKNDDDSTQSEEENTNILLNFEPSTVPEATGASTATGPVTTNTVRRKPKESNASKYNRHLKKPDGEPFNRKDIQFSFMQELLMDKRQIFTNVLKPLYKNSIVPINIDGDKLSINVTDKEYDARTFVFNDKLTFAQLYVLTIATSIKCSKILRDKLLLDQQVAFSTCVLALLVNIGRLNTTINFYLEMTSQLRTFHSVPVLQLHANDPKLLQDTPRLKSILKNLPWGNEQLSLMETYKKVDQNDGEVDTVNKFNIINMLFSICDNSGLIDKRFLSKYVEVESKAQEQDMVDEQNEVKETEAENEKQESKAAYATTLFDILDYSKYEPKDRSNILIWLLYIHLETNLSQEEVEESVRFFNGLEDGAPAGKFILRCTERSYDTDPEDELEFGANQRIKRREFMSKMEEGRKRERTNVTEVKKPSIGGDKSEEDGEGEDDKSEETVEETRSLLTPTPILESSSPMTLNRKKVTPQLPKVTPAAPTETEEEITSAAIIDKNDLNLTPLKKYNSSATVNKVDKLISLDLNKHVSENGKTQEEFLADLKKSQVPNRLKRRDIGLIKIFNEFEDIPVASVLGIRGKKRKKFKDNLLGFETDFMKNLGASKKVLLNKIERAEIDDEEATAMFKLE	binds	
Ies3 (protein, UniProt Q12345 1-250) MKFEDLLATNKQVQFAHAATQHYKSVKTPDFLEKDPHHKKFHNADGLNQQGSSTPSTATDANAASTASTHTNTTTFKRHIVAVDDISKMNYEMIKNSPGNVITNANQDEIDISTLKTRLYKDNLYAMNDNFLQAVNDQIVTLNAAEQDQETEDPDLSDDEKIDILTKIQENLLEEYQKLSQKERKWFILKELLLDANVELDLFSNRGRKASHPIAFGAVAIPTNVNANSLAFNRTKRRKINKNGLLENIL	binds	
Arp5 (protein, UniProt P53946 1-755) MSSRDASLTPLKAVVIDDPPLRQTPEPFDEQSAYNPQSPIAIDFGSSKLRAGFVNHATPTHIFPNALTKFRDRKLNKNFTFVGNDTLLDQAVRSQSRSPFDGPFVTNWNLTEEILDYTFHHLGVVPDNGIPNPILLTERLATVQSQRTNWYQILFETYNVPGVTFGIDSLFSFYNYNPSGNKTGLVISCGHEDTNVIPVVDGAGILTDAKRINWGGHQAVDYLNDLMALKYPYFPTKMSYLQYETMYKDYCYVSRNYDEDIEKILTLENLDTNDVVVEAPFTEVLQPQKTEEELRIQAEKRKETGKRLQEQARLKRMEKLVQKQEEFEYFSKVRDQLIDEPKKKVLSVLQNAGFDDERDFKKYLHSLEQSLKKAQMVEAEDDSHLDEMNEDKTAQKFDLLDIADEDLNEDQIKEKRKQRFLKASQDARQKAKEEKERVAKEEEEKKLKEQQWRETDLNGWIKDKRLKLNKLIKRRKEKLKLRDEMKDRKSQVSQNRMKNLASLAEDNVKQGAKRNRHQATIDNDPNDTFGANDEDWLIYTDITQNPEAFEEALEYEYKDIVELERLLLEHDPNFTEEDTLEAQYDWRNSILHLFLRGPRPHDSENIHEQHQMHLNVERIRVPEVIFQPTMGGQDQAGICELSETILLKKFGSQPGKLSQTSIDMVNNVLITGGNAKVPGLKERIVKEFTGFLPTGTNITVNMSSDPSLDAWKGMAALARNEEQYRKTVISKKEYEEYGPEYIKEHKLGNTKYFED	binds	binds
Ies2 (protein, UniProt P40154 1-320) MDSEASDIEAELSDSVSAGGEEYIDDDDYTEDIDDQIVTAKSSRRTARRSVPKGVRTSKRIRDKELSVEVDEDYDEEEDVLSPSKKRHLHTRSMDKRQVAATASEKSDIGDSKGNDGEIEDGILEEEESLEKELNRGGGKEVEKSEESYYAQNDVGQKGEEEQDGESGGYEDNEPSISKESDELVSVVNGNGNEEDDEVEATKENTTDSTRSTTTRSKMLLDLLEDGGSKKKLTDEEIQLRRAENARKRKNLSEKRLEEEKQDTINKLLKKRAGKSRSHLPNDDEKNDGSSSFVKPRRPYNSEGMTRILRRYEEDLFCTF	binds	binds
